Series [1] deals with synaptonemal complex protein 3 (SYCP3). Nature of the series: Immunofluorescence detection of SYCP3 in frozen sections of testes. Particulars: inferred from SYCP3 expression in testes of model mice.
Series [2] relates to busulfan-modeled mice. Particulars: administration group versus model group (no sperm).
The subject of series [3] is busulfan-modeled mice.
The conditions of series [4]: cited from earlier work.
The mark [5] stands for this setting: intraperitoneal (3, 6 mg/kg) or oral (5 mg/kg) for 7 days, compared with the model group.

On to `Nc1nc2ccc(OC(F)(F)F)cc2s1` [riluzole, 2-amino-6-trifluomethoxy-benzothiazole], for which, in series [1], the differentiation of spermatogonium entry was “promotes”. In addition, the “sperm in the tubules, HE staining of epididymis” value in the series with busulfan-modeled mice [2] is listed as “some sperm regeneration”. For the same molecule, in the series with busulfan-modeled mice [3] (setting [5]), the “amplitude of lateral head displacement (ALH) of the sperm” value is reported as “increasing”, the “beat cross frequency (BCF) of the sperm” value is reported as “increasing”, the sperm abnormality rate entry is given as “significantly reduces” and the sperm motility rate result is reported as “increases”. In addition, in the series on busulfan-modeled mice [3] (setting [5]), the sperm regeneration result is on record as “promotes”, the “straight line velocity (VSL) of the sperm” value is “increasing” and the “straightness (STR) of the sperm” value was “increasing”. In addition, the number of sperm entry in the series on busulfan-modeled mice [3] (intraperitoneal (3, 6 mg/kg) or oral (5 mg/kg) for 7 days, compared with the model group, tail of epididymis) is listed as “increases”. Also, in the series on busulfan-modeled mice [3] (mouse, in vivo), the sperm survival rate entry is on record as “increases” and the “therapeutic effect on the oligospermia” value is on record as “has a therapeutic effect”. The “volume of distribution (Vd)” value in series [4] (in vivo) is given as “about 3.4 L/kg”. For the same molecule, the absolute bioavailability entry in series [4] (oral administration) was “about 60%”.

(Values after patent US12691103B2 (Jinan University, priority 2022, dated 2026).)
